# Literature values in US12146871B2, “Method and device for physicochemical characterization of materials” (THE SOLUBILITY COMPANY OY, priority 2016, dated 2024).
# Settings: qualitative descriptor, commonly presented; cited from earlier work
compound,measurement,value
COc1ccc2c(c1)c(CC(=O)O)c(C)n2C(=O)c1ccc(Cl)cc1 [indomethacin],water solubility,practically insoluble
